This note sets out measurements from PMC10651883, “M. mazei glutamine synthetase and glutamine synthetase-GlnK1 structures reveal enzyme regulation by oligomer modulation” (Nature Communications, 2023).

Experiment [1] addresses T1, Methanosarcina mazei glutamine synthetase (Methanosarcina mazei), Q8PY99.
T1 chain: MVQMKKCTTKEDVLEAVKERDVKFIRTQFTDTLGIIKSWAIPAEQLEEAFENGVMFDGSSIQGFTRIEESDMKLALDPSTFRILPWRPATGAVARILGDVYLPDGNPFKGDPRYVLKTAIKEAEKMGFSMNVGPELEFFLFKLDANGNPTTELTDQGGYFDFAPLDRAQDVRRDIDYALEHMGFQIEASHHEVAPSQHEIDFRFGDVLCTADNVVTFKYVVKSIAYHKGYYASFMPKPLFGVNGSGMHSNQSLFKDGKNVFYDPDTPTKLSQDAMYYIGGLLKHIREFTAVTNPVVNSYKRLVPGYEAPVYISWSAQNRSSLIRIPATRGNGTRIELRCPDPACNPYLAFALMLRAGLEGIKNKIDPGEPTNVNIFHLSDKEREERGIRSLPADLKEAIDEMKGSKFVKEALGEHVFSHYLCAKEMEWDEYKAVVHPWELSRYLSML
The experiment is described as follows: crystal structure; Mm GS-GlnK1 complex formed by mixing ~2:1 (excess GlnK1) and SEC; 30% PEG 400, 0.1 M sodium cacodylate pH 6.5, 0.1 M LiSO4; both purified. The conditions noted are these: remark: other sources report otherwise.

Experiment [2] concerns the target T2, Methanosarcina mazei glutamine synthetase (Methanosarcina mazei) (UniProt Q8PY99).
T2 sequence: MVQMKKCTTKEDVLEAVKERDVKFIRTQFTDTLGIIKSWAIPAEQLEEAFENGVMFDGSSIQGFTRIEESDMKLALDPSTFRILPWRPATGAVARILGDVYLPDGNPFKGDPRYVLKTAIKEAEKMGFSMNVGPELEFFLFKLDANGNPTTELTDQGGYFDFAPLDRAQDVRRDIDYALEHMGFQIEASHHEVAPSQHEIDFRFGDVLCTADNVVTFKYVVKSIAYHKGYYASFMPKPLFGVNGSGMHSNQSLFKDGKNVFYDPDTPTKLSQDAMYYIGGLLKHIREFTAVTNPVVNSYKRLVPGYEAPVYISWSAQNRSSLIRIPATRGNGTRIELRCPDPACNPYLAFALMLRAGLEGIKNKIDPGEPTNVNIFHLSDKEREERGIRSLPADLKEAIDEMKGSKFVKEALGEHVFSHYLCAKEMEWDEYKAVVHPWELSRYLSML
The experiment is described as follows: fluorescence polarisation; apparent; GS titrated to saturation into 1 nM Fluorescein-12-ATP, then GlnK1 titrated in; 25 mM Tris pH 7.5, 100 mM NaCl, 1 mM MgCl2; both purified. (In general: Fluorescence polarisation rises when a labelled molecule tumbles more slowly, as on binding a larger partner.)

These are yes or no findings as the source states them, for the method shown. Some results given as binding are weak or reduced against the parent protein; the word gives no strength.

B1: Methanosarcina mazei GlnK1 (natural protein)
chain: MVAMKYVIAMIRPERLDAVKRELQKIEVSRLTVSSVSGYGAQKGYMEIYRAMEYDANLLEKIKIEIAVNDEFLEPTIEAIKTGAKGSDGYVGSGKIFVLPLENVIRIRTNETGPEAI
notes: GlnK1, PII family nitrogen regulatory protein of Methanosarcina mazei; gene bought from Genscript, in pET15b; Trimer in the crystal structure of the complex with GS; also called Mm GlnK1; WT GlnK1; source: E. coli C41(DE3), purified (cobalt NTA TALON)
Turning to B1, the binding entry in experiment [1] is recorded as “binds”.

B2: Mm GlnK1(I48P-Y49P) (protein, UniProt Q8PYW7 1-117)
chain: MVAMKYVIAMIRPERLDAVKRELQKIEVSRLTVSSVSGYGAQKGYMEPPRAMEYDANLLEKIKIEIAVNDEFLEPTIEAIKTGAKGSDGYVGSGKIFVLPLENVIRIRTNETGPEAI
For B2, the binding result in experiment [2] is “no binding”.
